The results in this text go back to PubChem BioAssay AID1347423 (Functional Genomics Laboratory (NCATS/FGL), 2020).

Among all 52,000 sequences or so, about 210 (0.4%) were called active.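 How the source made its calls: active means gene whose silencing raises cell survival under the drug, median off-target-corrected z-score across its silencing RNAs 2 or more; inactive means the rest.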 The list shows a part of the results.

A short description of the experiment: Resistance to Poly (ADP-Ribose) Polymerase inhibitor: Gene Identification via Genome-wide siRNA Screen. The note with it: mouse BRCA2 R2336H ES cells, olaparib, CellTiter-Glo viability; active compounds read high. In a few lines:
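Genome-wide siRNA screen (3 siRNAs/gene, 20 nM) in mouse ES cells carrying hypomorphic BRCA2 R2336H; olaparib 500 nM added 48 h post-transfection, CellTiter-Glo viability 72 h later. Normalized to plate-median negative control; MAD z-scores, gene median, seed-adjusted.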
On the technique in general: ATP-based viability assays read luminescence as a measure of living cells.
On to GCAGUUCUGGUUCUGUCUGTT against BC024322, for which the z-score was inactive: -0.0177.

On to GCUCAGUUGUUUUUCAUUCTT against Olfr782, for which the z-score is inactive: 0.211. Next, GAUGGUCCAGAGCGACUUCTT against Pou3f3: inactive: -0.0787; GGAGCAAAGUCUAAUAGCATT against Ercc1: inactive: -0.0951.

Consider GCCACUCAACAUUAAAUCCTT against Tbc1d8, for which the z-score was inactive: 1.76. Next, GUGUGGUACUCAACCCACUTT against Gpr40: inactive: 0.157; CCUCAAAGUGUUAGGAUGATT against Slc35e4: inactive: 0.719. GGAAAUUCUAGUCAAAUGCTT against Sp7: the z-score is inactive: -0.201. Next, “GGCUCAGUCUCAGGUGUUCTT against A630077B13Rik”: inactive: 0.66. Next, GGAUGGUCACGGAAGUUCUTT against AI451006: inactive: 0.192; GGUUUUGACUCUGUGAUAUTT against Sh3kbp1: inactive: 0.827. Turning to CGCUGAUGAACUCUUUUCUTT against Ces1, the z-score was inactive: 0.4. Next, GCAGGCUAACCACAUUUGCTT against Zic4: inactive: 0.52; “GGGAGUCUAUGCUAUGGGUTT against 2810457M08Rik”: inactive: 0.305; GCUUGGUAGAGAUGUUAAATT against Ryr3: inactive: -0.81. Next, GGGUAGAAUCCAAGAAGCGTT against Hoxb3: inactive: -0.806; GGACCAAAAACCACUGUUUTT against Olfr355: inactive: 1.59.

Take GGCUAUACCCUGAAAUAUUTT against Slitrk4: the z-score was inactive: -0.0705. Next, “GGAUCUGAAGGAAUACUUUTT against 2400010G15Rik”: active: 2.14; GGAUGUUGAAAUCAAUGGUTT against Cyp3a16: inactive: 1.07; GGUCACUCAAAGAAUUAUGTT against Srr: inactive: -1.07. Regarding GGCUGCUAGCUUAUAUAAGTT against Surb7, the z-score is inactive: 1.46.

Consider GGAAGAGAUCAUCCAGCUGTT against Mafg, for which the z-score is inactive: 0.219. GGCUUGAGGCCUUUCUCUATT against Zfpl1: the z-score is inactive: 0.376. Next, GGAGGACAAUGAGGACGAUTT against Chrac1: inactive: -0.472; GCCCAUAGUAAAUUUGUUATT against Zcchc12: inactive: -0.379; GGACCUUUUAUCUGAAAUGTT against Papln: inactive: 0.934.

Turning to GACAAAAUGGGUUUUACCUTT against Olfr668, the z-score is inactive: -1.24. Next, “GGGAUGGUGGAGAGAAAGATT against 2700067E09Rik”: inactive: -0.607; CCUCAAGUACUGUAAUCACTT against Atf2: inactive: -0.235. On to GGCUGAACUGAUCCUGUACTT against Kcnh3, for which the z-score is inactive: -0.436. In the case of GGGACAUUAAACUAUUUCATT against Chchd3, the z-score was inactive: -0.0615. Next, “GCACAACUCCUACAUGGUCTT against 4931419K03Rik”: inactive: -0.599; “GCUACAGCCGAGAGAAAUGTT against D14Ertd226e”: inactive: 2.92; “CGAUGGACGAGAAAUAUUUTT against 1700030K09Rik”: inactive: -0.892. Take GAGUUCAAGAAUGCUGUUUTT against Usp43: the z-score was inactive: 3.32. With GGAUCAUGUUAAACAAAGATT against Ccne1, the z-score was inactive: -0.291. Next, GGAGGAACAAUAAACUGUATT against Pet2: inactive: 0.364. As to GGUCUUGACCACACGAUGUTT against BC025833, the z-score was inactive: -0.000572.

Consider CCUUAACCUCCACUUUAUATT against Sdc2, for which the z-score is inactive: 0.0517. For the sequence GCCUUUCACUAUUGACAACTT against Aurkb, the z-score is inactive: -0.463. Next, “CUCACAAGUCAAAGCCUACTT against 6330583I20Rik”: inactive: 0.0818; GGAAAAGACGGGAGAUUUGTT against Mbldc1: inactive: 0.0178. Next, GGCAUGAUUGUUUUGAUCCTT against Olfr1500: inactive: -0.031; GGACGAUCGAUCGUUAACUTT against Ier5: inactive: 1.3; GCGUAUUACAGACAGUGACTT against Izumo1: inactive: 0.518. Next, GGCAUGUAGAGGACUAAUGTT against Cldn10: inactive: 0.827. GGAUCUUUUUGUUUUUCCUTT against Commd8: the z-score is inactive: -0.283. For the sequence “CGAUAUUUAUAUCCACCUATT against 6430514L14Rik”, the z-score was inactive: -0.388. “GGGCCACAGGAUCUCACUUTT against 1700009J07Rik”: the z-score was inactive: -0.418. Take GCUUGGUGAGACUUUAACCTT against Nhlh2: the z-score is inactive: 0.765. Next, GGUGAAGAGAUUGACGUGGTT against Lmyc1: inactive: 1.62.

Take GGAUUUUUACAUUGAGUCUTT against Cdca5: the z-score is inactive: -0.759. In the case of CCAGAAACUUAACAACGACTT against Bpgm, the z-score was inactive: -0.0201. For the sequence CCUACUCAAGUACCCUAAATT against Zfp59, the z-score was inactive: -1.12. Next, GCUGAUGGCGUACAUUGAATT against Fut10: inactive: -1.46. On to GCCGUCUACCCUGAUAACATT against Cp, for which the z-score is inactive: -0.898. Next, GGUAGAAGUGAAAUAUUCUTT against Ndufaf1: inactive: 2.23. With GGGCAACGUAUUCACAUUATT against Manbal, the z-score is inactive: -1.41.

With “GGAUUCAAUUUUUUGCCAUTT against 2610029G23Rik”, the z-score was inactive: 0.845. Next, GGACAGACUACACUUCUAUTT against BC008103: inactive: 2.95; GGAGUUGCUGUGUAUGACATT against Hspa1a: inactive: -1.35. Next, “GGAAAUAGACGCAAAAAUATT against 4833446K15Rik”: inactive: -0.788; GGACUUGGUGACUUACUUCTT against Smpdl3b: inactive: 0.275; GGUAAAAGCUCAGAUUCACTT against Ncoa4: inactive: 2.39. Next, GGAACUUUAUAAGGACUAUTT against Xlr4: inactive: -0.738.
